Patent publication US20230112035A1 (AstraZeneca / MedImmune, published 2023)
Residue numbers refer to the chain shown, from its start. In names and notes the source's numbering stands. These are yes or no findings as the source states them, for the method shown. Some results given as binding are weak or reduced against the parent protein; the word gives no strength.

Amino acid sequences for entries named in this document (tags omitted). A change or cut given only in a name is not applied to a line headed by its entry.
UniProt P06756: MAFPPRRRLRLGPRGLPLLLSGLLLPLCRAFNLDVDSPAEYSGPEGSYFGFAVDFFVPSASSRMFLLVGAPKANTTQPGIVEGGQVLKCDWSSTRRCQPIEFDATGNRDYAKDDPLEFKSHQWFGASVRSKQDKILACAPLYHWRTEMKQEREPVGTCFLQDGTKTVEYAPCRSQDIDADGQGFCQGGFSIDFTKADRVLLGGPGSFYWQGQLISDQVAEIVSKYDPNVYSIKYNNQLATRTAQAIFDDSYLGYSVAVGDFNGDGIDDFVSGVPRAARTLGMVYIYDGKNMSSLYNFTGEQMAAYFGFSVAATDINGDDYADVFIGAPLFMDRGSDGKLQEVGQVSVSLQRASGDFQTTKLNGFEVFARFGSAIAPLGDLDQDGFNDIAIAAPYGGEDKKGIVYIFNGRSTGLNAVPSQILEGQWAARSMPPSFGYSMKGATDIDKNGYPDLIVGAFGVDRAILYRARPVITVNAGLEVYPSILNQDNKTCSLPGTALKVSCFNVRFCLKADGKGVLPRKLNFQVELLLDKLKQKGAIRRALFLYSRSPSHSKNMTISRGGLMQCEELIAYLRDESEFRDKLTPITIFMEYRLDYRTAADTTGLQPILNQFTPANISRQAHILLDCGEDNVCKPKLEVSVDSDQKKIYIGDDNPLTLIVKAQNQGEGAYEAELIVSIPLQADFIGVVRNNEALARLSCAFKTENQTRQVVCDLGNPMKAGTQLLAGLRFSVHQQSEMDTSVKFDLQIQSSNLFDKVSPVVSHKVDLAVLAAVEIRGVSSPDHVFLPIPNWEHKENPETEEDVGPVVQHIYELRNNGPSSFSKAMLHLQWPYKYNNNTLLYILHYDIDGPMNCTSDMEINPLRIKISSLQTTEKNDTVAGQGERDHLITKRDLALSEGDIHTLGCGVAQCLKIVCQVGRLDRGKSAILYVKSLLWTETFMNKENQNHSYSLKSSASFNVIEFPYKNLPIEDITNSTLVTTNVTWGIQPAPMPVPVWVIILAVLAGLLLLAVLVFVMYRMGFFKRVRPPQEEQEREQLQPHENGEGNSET

B1: hu37E1B5 anti-αvβ8 integrin antibody (UCSF humanized sequence of WO 2013/026004) (antibody, V domains shown)
VH: EVQLVESGGGLVQPGGSLRLSCAVSGFVFSRYWMSWVRQAPGKGLEWIGEINPDSSTINYTSSLKDRFTISRDNAKNSLYLQMNSLRAEDTAVYYCASLITTEDYWGQGTTVTVSS
VL: EIVLTQSPSSLSLSPGERVTITCKASQDINSYLSWYQQKPGKAPKLLIYYANRLVDGVPARFSGSGSGQDYTLTISSLEPEDFAVYYCLQYDEFPYTFGGGTKLEIK
B2: MEDI-hu37E1B5-C94I mutant antibody (antibody, V domains shown)
VH: B1 VH with S98I
VL: DIQLTQSPSSLSASVGDRVTITCKASQDINSYLSWFQQKPGKAPKSLIYYANRLVDGVPSRFSGSGSGTDFTLTISSLQPEDFATYYCLQYDEFPYTFGGGTKVEIK
notes: IgG; also called humanized anti-αvβ8 integrin antibody C94I
B3: Chi-37E1B5 chimeric anti-αvβ8 integrin antibody (antibody, V domains shown)
VH: B1 VH with R19N, R67K, T69I, S78T, S85K, L86V, A88S, V93L, S98C, T111S
VL: EIVLTQSPSSMYASLGERVTIPCKASQDINSYLSWFQQKPGKSPKTLIYYANRLVDGVPSRFSGSGSGQDYSLTISSLEYEDMGIYYCLQYDEFPYTFGGGTKLEIK
B4: B5-15 humanized and affinity optimized anti-αvβ8 integrin antibody (antibody, V domains shown)
VH: B1 VH with Y32S, M34I, S98I
VL: B2 VL with S31K, E93V
B5: B5-15 N59Q anti-αvβ8 integrin antibody (antibody, V domains shown)
VH: B1 VH with Y32S, M34I, N59Q, S98I
VL: B2 VL with S31K, E93V

Legend:
[1] = molecular target: recombinantly produced αvβ8 integrin protein (UniProt P06756); assay: binding curves of IgG on αvβ8 integrin protein (FIG. 1A)
[2] = molecular target: recombinantly produced αvβ8 integrin protein (UniProt P06756); assay: affinity binding studies (FIG. 1A)
[3] = molecular target: recombinantly produced αvβ8 integrin protein (UniProt P06756); assay: binding curves (FIG. 1B)
[4] = molecular target: recombinantly produced αvβ8 integrin protein (UniProt P06756); assay: ELISA screening of position 94 mutants
[5] = molecular target: recombinantly produced αvβ8 integrin protein (UniProt P06756); assay: binding curves and Biacore (FIG. 1B)
[6] = molecular target: recombinantly produced αvβ8 integrin protein (UniProt P06756); assay: ELISA on coated recombinant αvβ8 integrin protein (FIG. 4)
[7] = molecular target: recombinantly produced αvβ8 integrin protein (UniProt P06756); assay: comparison of FIG. 1B (Biacore, binding curves) and FIG. 4 (ELISA)
[8] = molecular target: recombinantly produced αvβ8 integrin protein (UniProt P06756); assay: ELISA, recombinant αvβ8 integrin protein coated, HRP goat anti-human Fc detection

Binder | binding [1] | binding [3] | binding [8] | also measured
B1 | binds | binds |  | binding [2]: binds
B2 |  |  |  | binding [4]: binds
B3 | binds | binds |  | binding [5]: binds
B4 |  |  | binds | binding [6]: binds; binding [7]: binds
B5 |  |  | binds | 
